Laboratory results from article doi:10.1101/725044.
Read-outs that look alike come from different tables or passages of the source. No constants are given. Whether binding was seen depends on the method and setting. For part of these data: Binding seen in cells or lysates may run through a third protein. Some binding calls cover weakened binding; strength is not graded here.

By UniProt entry, the sequences of proteins in these tests, tags left out. Where a name states a change or a piece, a line headed by the entry shows the natural chain unless it says otherwise. Residues count along the entry.
UniProt Q92993: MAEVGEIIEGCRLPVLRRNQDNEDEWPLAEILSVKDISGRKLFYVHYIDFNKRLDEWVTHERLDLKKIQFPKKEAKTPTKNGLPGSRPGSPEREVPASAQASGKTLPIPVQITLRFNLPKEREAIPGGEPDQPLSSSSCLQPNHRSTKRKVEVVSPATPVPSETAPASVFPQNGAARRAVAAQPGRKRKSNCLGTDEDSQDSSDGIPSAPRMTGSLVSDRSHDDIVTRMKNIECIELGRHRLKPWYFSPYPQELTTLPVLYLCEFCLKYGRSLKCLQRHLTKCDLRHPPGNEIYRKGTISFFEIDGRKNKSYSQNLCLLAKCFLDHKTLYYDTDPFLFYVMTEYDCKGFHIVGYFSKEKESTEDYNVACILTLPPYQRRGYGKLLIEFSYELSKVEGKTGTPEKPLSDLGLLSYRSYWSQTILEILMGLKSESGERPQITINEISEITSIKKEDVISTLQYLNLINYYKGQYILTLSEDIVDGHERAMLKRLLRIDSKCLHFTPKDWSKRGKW
UniProt P43694: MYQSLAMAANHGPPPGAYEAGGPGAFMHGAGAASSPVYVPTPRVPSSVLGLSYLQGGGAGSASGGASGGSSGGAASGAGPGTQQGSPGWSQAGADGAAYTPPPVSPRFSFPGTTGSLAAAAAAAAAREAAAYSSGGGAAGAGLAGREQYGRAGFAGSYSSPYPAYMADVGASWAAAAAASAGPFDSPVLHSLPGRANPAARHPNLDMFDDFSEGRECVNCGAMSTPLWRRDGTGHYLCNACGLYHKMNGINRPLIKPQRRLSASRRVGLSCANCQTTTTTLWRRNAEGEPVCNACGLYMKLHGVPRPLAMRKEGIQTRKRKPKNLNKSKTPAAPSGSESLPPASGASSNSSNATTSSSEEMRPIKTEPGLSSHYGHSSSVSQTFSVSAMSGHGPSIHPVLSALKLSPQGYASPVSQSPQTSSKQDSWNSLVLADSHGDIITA
GATA4 C-terminal zinc finger region (a.a. 251-350): residues 251-350 of P43694
UniProt Q8N6T7: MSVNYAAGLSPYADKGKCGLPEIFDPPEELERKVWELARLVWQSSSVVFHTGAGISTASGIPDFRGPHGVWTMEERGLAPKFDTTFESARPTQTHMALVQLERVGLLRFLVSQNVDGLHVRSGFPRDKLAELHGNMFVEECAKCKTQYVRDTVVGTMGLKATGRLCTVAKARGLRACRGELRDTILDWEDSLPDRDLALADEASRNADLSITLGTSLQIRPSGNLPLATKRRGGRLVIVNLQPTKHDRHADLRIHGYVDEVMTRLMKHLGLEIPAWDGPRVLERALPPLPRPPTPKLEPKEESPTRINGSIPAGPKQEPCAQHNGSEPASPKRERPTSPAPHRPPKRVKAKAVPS

Assays:
[1] = molecular target: Flag-Tip60 (UniProt Q92993); experiment: co-IP
[2] = molecular target: GATA4 (UniProt P43694); experiment: co-IP
[3] = molecular target: HA-GATA4 (UniProt P43694); experiment: co-IP
[4] = molecular target: Flag-GATA4 (UniProt P43694); experiment: co-IP
[5] = molecular target: GATA4 C-terminal zinc finger region (a.a. 251-350) (UniProt P43694); experiment: co-IP
[6] = molecular target: Flag-Tip60 (UniProt Q92993); experiment: co-IP; remark: listed apart in the source
[7] = molecular target: HA-SIRT6 (UniProt Q8N6T7); experiment: co-IP
[8] = molecular target: GST-tagged SIRT6 (UniProt Q8N6T7); experiment: pull-down

binding [1]	binding [2]	Substance	also measured
binds	binds	SIRT6 D63Y (from UniProt Q8N6T7 1-355)	–
binds	–	SIRT6 (from UniProt Q8N6T7 1-355)	binding [4]: binds; binding [5]: binds; binding [6]: binds

The remaining lines, values behind:

Substance	binding [1]	binding [2]	also measured
Flag-SIRT6 (from UniProt Q8N6T7 1-355)	–	–	binding [3]: binds
SIRT6 H133Y (from UniProt Q8N6T7 1-355)	–	no binding	–
GATA4 (from UniProt P43694 1-442)	–	–	binding [7]: binds
SIRT6 D116N (from UniProt Q8N6T7 1-355)	binds	binds	–
His-tagged GATA4 (from UniProt P43694 1-442)	–	–	binding [8]: binds
